# The campaign covered roughly 390,000 compounds. About 610 (0.16%) were called active. Inconclusive means that the source gave no clear call. Such entries were picked first, then a sample of the others. The call rests on the fitted dose curve; in most records, active means well fitted inhibition curve with a large enough effect; inconclusive means small, poorly fitted or top-dose-only effect, or effect the other way, or another doubt; inactive means no such curve, though single readings can be large or run the other way. A potency beside an inconclusive call is a rough fit, not a confirmed value.
# Test: Nrf2 qHTS screen for inhibitors: counterscreen for cytotoxicity
# Conditions: A549 ARE-Fluc cells, CellTiter-Fluor viability, 18-24 h; series mostly up to 46 µM
# In short: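 A549 ARE-Fluc cells in 5% FBS OPTI-MEM, 5000 cells/well, rested 2 h then exposed to compounds in concentration-response for 18-24 h at 37 °C. Viability by CellTiter-Fluor fluorescence (Ex 405/Em 525) after 30 min; luciferase luminescence (BugLite, 15 min, RT) read afterwards.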
# Potency means the concentration at half of the fitted maximal effect.
row,SMILES,Potency
1,Nc1c(C(=O)OCc2ccccc2)c2nc3ccccc3nc2n1Cc1cccs1,"inconclusive: 16.4 µM [falling, partial curve, poor fit]"
2,Cc1cccc(-n2c(O)c(C)c(=O)[nH]c2=S)c1,inactive
3,CC(=O)N1CCC2(CC1)CC(=O)c1cc(OCC(=O)N3CCC4(CC3)OCCO4)ccc1O2,inactive
4,COC(=O)C1=C(c2ccccc2OCc2ccccc2)C[C@@H]2CC[C@H]1N2C(=O)NCCc1ccc(F)cc1,"inconclusive: 29.1 µM [falling, single point]"
5,COC(=O)C1=C(c2ccc(OCc3ccccc3)cc2)C[C@@H]2CC[C@H]1N2C(=O)NC1CCN(Cc2ccccc2)CC1,active: 20.6 µM
6,O=C1/C(=C\c2ccncc2)N2CCC1CC2,"inconclusive: 4.61 µM [falling, partial curve, poor fit]"
7,CC12CCC(=O)C=C1CCC1C2CCC2(C)C(O)CCC12 (stereo unspecified),inactive
8,COC(=O)C1=C(c2c(C)noc2C)C[C@@H]2CC[C@H]1N2C(=O)NCc1ccc(C(F)(F)F)cc1,"inconclusive: 23.1 µM [falling, partial curve, poor fit]"
9,CN1CC[C@@]2(C)c3cc(O)ccc3N(C)[C@@H]12,active: 23.1 µM
10,CC(C)(C)c1cc([N+](=O)[O-])cc(C(C)(C)C)c1O,"inconclusive: 23.1 µM [falling, single point]"
11,CC1CCC/C=C/C2CC(O)CC2C(O)/C=C/C(=O)O1 (stereo unspecified),"inconclusive: 4.61 µM [falling, full curve, poor fit]"
12,CCCC(C)C1(CC)C(=O)NC(=Nc2ccc(F)cc2)NC1=O (stereo unspecified),"inconclusive: 14.6 µM [falling, partial curve, poor fit]"
13,Cc1cc(C)cc(NC(=O)CN2C(=O)CN=C(c3ccccc3)c3cc(Cl)ccc32)c1,"inconclusive: 18.4 µM [falling, partial curve, poor fit]"
14,CCCCn1c(=O)c(C(=O)Nc2ncccc2C)c(O)c2ccccc21,inactive
15,O=c1ccc2cc(OC3O[C@H](CO)[C@@H](O)[C@H](O)[C@H]3O)c(O)cc2o1 (stereo partly specified),"inconclusive: 20.6 µM [activator, partial curve]"
16,O=C1NC(=O)N(Cc2ccccc2)C(=O)C1Cc1ccccc1 (stereo unspecified),inactive
17,Cc1ccc(C(=O)N[C@@H](C)CN2C3=NC[C@H](Cc4ccccc4)N3C[C@H]2Cc2ccc(O)cc2)cc1Br,"inconclusive: 16.4 µM [falling, partial curve]"
18,CN1C(=O)/C(=C/c2ccc(N3CCCCCC3)o2)C(=O)NC1=S,"inconclusive: 29.1 µM [falling, single point]"
19,O=c1ccc2cc(O[C@@H]3O[C@@H](CO)[C@H](O)[C@@H](O)[C@@H]3O)c(O)cc2o1,"inconclusive: 16.4 µM [activator, partial curve]"
20,C=CCN1C(=O)NC(=O)/C(=C\c2ccc(-c3ccccc3[N+](=O)[O-])o2)C1=O,inactive
21,CCCCCCn1c(=O)c(C(=O)Nc2cnccn2)c(O)c2ccccc21,"inconclusive: 4.61 µM [falling, partial curve, poor fit]"

row,SMILES,Potency
1,Cn1nc(-c2ccc(OCC(=O)N3CCN(Cc4ccccc4)CC3)cc2)c2ccccc2c1=O,"inconclusive: 23.1 µM [falling, partial curve, poor fit]"
2,CCN1C(=O)C(=Cc2ccc(N3CCOCC3)o2)C(=O)N(CC)C1=S,"inconclusive: 25.9 µM [falling, single point]"
3,CC(C)C(=O)N1CCC(CN=Cc2c(O)n(C3CCCCC3)c(=O)n(C3CCCCC3)c2=O)CC1,"inconclusive: 29.1 µM [falling, partial curve, poor fit]"
4,CCc1ccc(N2C(=O)NC(=O)/C(=C\c3cccn3CCOc3ccc(C(C)C)cc3)C2=O)cc1,"inconclusive: 29.1 µM [falling, single point]"
5,CN(C)C(=S)SSC(=S)N(C)C,inactive
6,COc1ccc(CN2CCN(C(=O)Cn3c(=O)oc4cc(Cl)ccc43)CC2)c(OC)c1OC,"inconclusive: 16.4 µM [falling, partial curve, poor fit]"
7,Cc1cc(-c2ccc(N)c(C)c2)ccc1N,"inconclusive: 6.51 µM [activator, partial curve, poor fit]"
8,CC(=O)N1N=C2C3CCN(CC3)C2C1c1ccc(Br)cc1 (stereo unspecified),"inconclusive: 16.4 µM [activator, partial curve, poor fit]"
9,O=C1C(=O)c2ccccc2-c2ccccc21,"inconclusive: 23.1 µM [falling, single point]"
10,CCOC(=O)CCCc1cc[c]([Sb](=[O])([OH])[OH])cc1,inactive
11,Cc1cccc(OCC(=O)N2CCN(Cc3cc(=O)n4nc(-c5ccccc5Cl)sc4n3)CC2)c1,inactive
12,C=C1C(=O)O[C@@H]2C[C@@H](C)[C@@H]3C=CC(=O)[C@@]3(C)[C@@H](OC(=O)CC(=O)O[C@H]3[C@@H]4C(=C)C(=O)O[C@@H]4C[C@@H](C)[C@@H]4C=CC(=O)[C@]43C)[C@H]12,active: 14.6 µM
13,Oc1ccc(CCN2CCCCC2)cc1,inactive
14,COc1ccc(-n2c(C)nc3cc(C(=O)N4CCC5(CC4)OCCO5)ccc32)cc1,"inconclusive: 20.6 µM [falling, partial curve, poor fit]"
15,COc1ccc(CNCCc2c[nH]c3ccccc23)c(OC)c1C,"inconclusive: 29.1 µM [falling, single point]"
16,CCN(CC)N=O,"inconclusive: 1.3 µM [activator, partial curve, poor fit]"
17,O=C(c1cc(C(=O)NCc2ccccc2)c(=O)n(Cc2ccccc2)c1)c1cc(Br)ccc1O,"inconclusive: 20.6 µM [falling, partial curve, poor fit]"
18,COC1=C(C)C(=O)C2=C(C1=O)C(CO)N1C(C#N)C3CC4C(C1C2N1CCOC41)N3C (stereo unspecified),"inconclusive: 4.61 µM [falling, full curve]"
19,Cc1cc(Cc2c(O)[nH]c(=S)[nH]c2=O)ccc1OC(C)C,inactive
20,C#CCOCCOCCOCCNc1nc(N2CCN(C(=O)CCCCCCCCCCNC(=O)[C@H]([C@@H](C)CC)n3cc(CCCCN=C(N)N)nn3)CC2)nc(N2CCN(C(=O)CCCCCCCCCCNC(=O)[C@H](CO)n3cc(CCCCCN)nn3)CC2)n1,"inconclusive: 23.1 µM [falling, single point]"
21,Cc1ccc2c(c1)C1CN(C)CCC1N2C(=O)c1ccccc1NS(=O)(=O)c1cccc(C(F)(F)F)c1 (stereo unspecified),"inconclusive: 16.4 µM [falling, single point]"

row,SMILES,Potency
1,CC(=O)OC12COC1CC(O)C1(C)C(=O)C(O)C3=C(C)C(O)CC(O)(C(OC(=O)c4ccccc4)C21)C3(C)C (stereo unspecified),"inconclusive: 20.6 µM [falling, partial curve, poor fit]"
2,CC(=O)OC1CC(OC2C(O)CC(OC3C(O)CC(OC4CCC5(C)C(CCC6C5CC(O)C5(C)C(C7=CC(=O)OC7)CCC65O)C4)OC3C)OC2C)OC(C)C1OC1OC(CO)C(O)C(O)C1O (stereo unspecified),"inconclusive: 0.461 µM [falling, full curve]"
3,Cc1nc2c(=O)n(C)c(=O)nc-2n(C)n1,active: 1.64 µM
4,CNC(=O)Oc1ccc(-c2cn3cc(C)ccc3n2)cc1,"inconclusive: 7.31 µM [falling, partial curve, poor fit]"
5,CCCCn1c(N)c(C(=O)NCc2cccs2)c2nc3ccccc3nc21,"inconclusive: 29.1 µM [falling, single point]"
6,CC(C)c1oc(=O)cc2c1[C@@H](O)[C@H]1OC(=O)[C@@]3(C)C[C@@H](O)[C@@H](O)[C@@]2(C)C13 (stereo partly specified),"inconclusive: 6.51 µM [falling, partial curve]"
7,COc1ccc2c(c1)/C(=C/c1cnc[nH]1)C(=O)N2,"inconclusive: 16.4 µM [falling, partial curve, poor fit]"
8,COc1ccc(C[C@H]2NC[C@H](O)[C@H]2OC(C)=O)cc1,"inconclusive: 0.058 µM [falling, full curve]"
9,COc1ccc(Cl)cc1C(=O)C1CCCN(Cc2cnc(C)s2)C1 (stereo unspecified),"inconclusive: 32.6 µM [falling, partial curve, poor fit]"
10,CCCCn1c(O)c(C(C)=NCCCN(CC)CC)c(=O)[nH]c1=O,"inconclusive: 18.4 µM [activator, partial curve, poor fit]"
11,CCC(COC(=O)c1cc(OC)c(OC)c(OC)c1)(c1ccccc1)N(C)C (stereo unspecified),inactive
12,Cc1ccc(-c2nc3c(=O)n(C)c(=O)nc-3n(C)n2)cc1,active: 2.91 µM
13,CCC(C)C1NC(=O)C2CCCN2C(=O)C(CC(C)C)OC(=O)CCNC(=O)C(C)N(C)C(=O)C(C(C)C)N(C)C1=O (stereo unspecified),active: 8.2 µM
14,O=C1NC(=O)C(=Cc2ccccc2OCCOc2ccc([N+](=O)[O-])cc2)C(=O)N1,inactive
15,CCCC[C@@H](C)C[C@@H](C)C(=O)N(C)[C@@H](CC(C)C)C(=O)N[C@H](C(=O)N(C)[C@H](C(=O)N1C[C@@H](O)C[C@H]1C(=O)N1C(=O)C=C[C@@H]1C)C(C)C)C(C)OC(C)=O (stereo partly specified),"inconclusive: 18.4 µM [falling, single point]"
16,O=C1NC(=O)C(=Cc2ccccc2[N+](=O)[O-])C(=O)N1,inactive
17,Cn1c(NN=O)nc2ccccc21,"inconclusive: 20.6 µM [falling, partial curve]"
18,CCOP(=O)(c1ccccc1)c1nc(-c2ccc(F)cc2)oc1N1CCCCC1 (stereo unspecified),"inconclusive: 23.1 µM [falling, partial curve, poor fit]"
19,COC(=O)C(Cc1ccc(N(CCCl)CCCl)cc1)N=Cc1ccccc1O (stereo unspecified),"inconclusive: 18.4 µM [falling, single point]"

# Some of the entries above in another layout:
row	SMILES	Potency
12	CCCC(C)C1(CC)C(=O)NC(=Nc2ccc(F)cc2)NC1=O (stereo unspecified)	inconclusive: 14.6 µM [falling, partial curve, poor fit]
13	Cc1cc(C)cc(NC(=O)CN2C(=O)CN=C(c3ccccc3)c3cc(Cl)ccc32)c1	inconclusive: 18.4 µM [falling, partial curve, poor fit]
16	O=C1NC(=O)N(Cc2ccccc2)C(=O)C1Cc1ccccc1 (stereo unspecified)	inactive
21	CCCCCCn1c(=O)c(C(=O)Nc2cnccn2)c(O)c2ccccc21	inconclusive: 4.61 µM [falling, partial curve, poor fit]
6	CC(C)c1oc(=O)cc2c1[C@@H](O)[C@H]1OC(=O)[C@@]3(C)C[C@@H](O)[C@@H](O)[C@@]2(C)C13 (stereo partly specified)	inconclusive: 6.51 µM [falling, partial curve]

# — PubChem BioAssay AID504648 (National Center for Advancing Translational Sciences (NCATS), 2011)
